Data reported in the supplement of paper PMC8728848.
The other results are listed elsewhere or left out.

How the values were obtained:
Assay in all cases: glycan array binding signal (z-score within array); higher = stronger binding
Settings in all cases: glycan notation: IUPAC condensed, linker removed
[1] = biological target: Gal(b1-3)GlcNAc(b1-3)Gal(b1-4)GlcNAc(b1-2)[Gal(b1-3)GlcNAc(b1-3)Gal(b1-4)GlcNAc(b1-6)]Man(a1-6)[Gal(b1-3)GlcNAc(b1-3)Gal(b1-4)GlcNAc(b1-2)Man(a1-3)]Man(b1-4)GlcNAc(b1-4)[Fuc(a1-6)]GlcNAc
How it was run: (§1)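 Arrays were curated from the Consortium for Functional Glycomics database, 3228 in total, and kept only where the protein sequence was available. Binding is expressed as a within-array Z-score. This score was averaged across arrays of the same protein sequence at different concentrations or buffers and across linkers, and negative values can be read as non-binding.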

[2] = biological target: Gal(b1-3)GlcNAc(b1-3)Gal(b1-4)GlcNAc(b1-3)Gal(b1-4)GlcNAc(b1-2)[Gal(b1-3)GlcNAc(b1-3)Gal(b1-4)GlcNAc(b1-3)Gal(b1-4)GlcNAc(b1-6)]Man(a1-6)[Gal(b1-3)GlcNAc(b1-3)Gal(b1-4)GlcNAc(b1-3)Gal(b1-4)GlcNAc(b1-2)Man(a1-3)]Man(b1-4)GlcNAc(b1-4)[Fuc(a1-6)]GlcNAc
How it was run: as §1

[3] = biological target: Gal(b1-3)GlcNAc(b1-3)Gal(b1-4)GlcNAc(b1-6)[Gal(b1-3)GlcNAc(b1-3)]Gal(b1-4)Glc
How it was run: as §1

[4] = biological target: Gal(b1-3)GlcNAc(b1-3)Gal(b1-4)[Fuc(a1-3)]GlcNAc
How it was run: as §1

[5] = biological target: Gal(b1-3)GlcNAc(b1-3)Gal(b1-4)[Fuc(a1-3)]GlcNAc(b1-6)[Gal(b1-3)GlcNAc(b1-3)]Gal(b1-4)Glc
How it was run: as §1

[6] = biological target: Gal(b1-3)GlcNAc(b1-3)GalNAc
How it was run: as §1

[7] = biological target: Gal(b1-3)GlcNAc(b1-6)Gal(b1-4)GlcNAc
How it was run: as §1

[8] = biological target: Gal(b1-3)GlcNAc(b1-6)GalNAc
How it was run: as §1

[9] = biological target: Gal(b1-3)GlcNAc(b1-6)[Gal(b1-3)]GalNAc
How it was run: as §1

Gal(b1-3)GlcNAc6S = biological target: Gal(b1-3)GlcNAc6S
How it was run: as §1

[10] = biological target: Gal(b1-3)[Fuc(a1-4)]GlcNAc
How it was run: as §1

[11] = biological target: Gal(b1-3)[Fuc(a1-4)]GlcNAc(b1-2)Man
How it was run: as §1

[12] = biological target: Gal(b1-3)[Fuc(a1-4)]GlcNAc(b1-2)Man(a1-3)[Gal(b1-3)[Fuc(a1-4)]GlcNAc(b1-2)Man(a1-6)]Man(b1-4)GlcNAc(b1-4)GlcNAc
How it was run: as §1

[13] = biological target: Gal(b1-3)[Fuc(a1-4)]GlcNAc(b1-2)Man(a1-3)[Gal(b1-3)[Fuc(a1-4)]GlcNAc(b1-2)Man(a1-6)]Man(b1-4)GlcNAc(b1-4)[Fuc(a1-6)]GlcNAc
How it was run: as §1

[14] = biological target: Gal(b1-3)[Fuc(a1-4)]GlcNAc(b1-3)Gal(b1-3)[Fuc(a1-4)]GlcNAc
How it was run: as §1

[15] = biological target: Gal(b1-3)[Fuc(a1-4)]GlcNAc(b1-3)Gal(b1-4)GlcNAc
How it was run: as §1

[16] = biological target: Gal(b1-3)[Fuc(a1-4)]GlcNAc(b1-3)Gal(b1-4)[Fuc(a1-3)]GlcNAc
How it was run: as §1

[17] = biological target: Gal(b1-3)[Fuc(a1-4)]GlcNAc(b1-6)GalNAc
How it was run: as §1

[18] = biological target: Gal(b1-3)[GlcNAc(b1-6)]GalNAc
How it was run: as §1

[19] = biological target: Gal(b1-3)[Neu5Ac(a2-6)]GalNAc
How it was run: as §1

[20] = biological target: Gal(b1-3)[Neu5Ac(a2-6)]GlcNAc(b1-4)Gal(b1-4)Glc
How it was run: as §1

[21] = biological target: Gal(b1-3)[Neu5Ac(a2-6)]GlcNAc(b1-6)Gal(b1-4)Glc
How it was run: as §1

[22] = biological target: Gal(b1-3)[Neu5Ac(b2-6)]GalNAc
How it was run: as §1

Gal(b1-4)Gal = biological target: Gal(b1-4)Gal
How it was run: as §1

[23] = biological target: Gal(b1-4)GalNAc(a1-3)[Fuc(a1-2)]Gal(b1-4)GlcNAc
How it was run: as §1

[24] = biological target: Gal(b1-4)GalNAc(b1-3)[Fuc(a1-2)]Gal(b1-4)GlcNAc
How it was run: as §1

Gal(b1-4)Glc = biological target: Gal(b1-4)Glc
How it was run: as §1

Gal(b1-4)Glc6S = biological target: Gal(b1-4)Glc6S
How it was run: as §1

Gal(b1-4)GlcNAc = biological target: Gal(b1-4)GlcNAc
How it was run: as §1

[25] = biological target: Gal(b1-4)GlcNAc(a1-6)Gal(b1-4)GlcNAc
How it was run: as §1

Gal(b1-4)GlcNAc(b1-2)Man = biological target: Gal(b1-4)GlcNAc(b1-2)Man
How it was run: as §1

[26] = biological target: Gal(b1-4)GlcNAc(b1-2)Man(a1-3)Man(b1-4)GlcNAc(b1-4)GlcNAc
How it was run: as §1

[27] = biological target: Gal(b1-4)GlcNAc(b1-2)Man(a1-3)[Gal(b1-4)GlcNAc(b1-2)Man(a1-6)]Man(b1-4)GlcNAc(b1-4)GlcNAc
How it was run: as §1

[28] = biological target: Gal(b1-4)GlcNAc(b1-2)Man(a1-3)[Gal(b1-4)GlcNAc(b1-2)Man(a1-6)]Man(b1-4)GlcNAc(b1-4)[Fuc(a1-6)]GlcNAc
How it was run: as §1

[29] = biological target: Gal(b1-4)GlcNAc(b1-2)Man(a1-3)[Gal(b1-4)GlcNAc(b1-2)Man(a1-6)][Gal(b1-4)GlcNAc(b1-4)]Man(b1-4)GlcNAc(b1-4)[Fuc(a1-6)]GlcNAc
How it was run: as §1

[30] = biological target: Gal(b1-4)GlcNAc(b1-2)Man(a1-3)[Gal(b1-4)GlcNAc(b1-2)Man(a1-6)][GlcNAc(b1-4)]Man(b1-4)GlcNAc(b1-4)[Fuc(a1-6)]GlcNAc
How it was run: as §1

[31] = biological target: Gal(b1-4)GlcNAc(b1-2)Man(a1-3)[Gal(b1-4)GlcNAc(b1-2)][GlcNAc(b1-4)]Man(b1-4)GlcNAc(b1-4)GlcNAc
How it was run: as §1

B1: Flo1 (Saccharomyces cerevisiae), P32768 (protein)
chain: SGATEACLPAGQRKSGMNINFYQYSLKDSSTYSNAAYMAYGYASKTKLGSVGGQTDISIDYNIPCVSSSGTFPCPQEDSYGNWGCKGMGACSNSQGIAYWSTDLFGFYTTPTNVTLEMTGYFLPPQTGSYTFKFATVDDSAILSVGGATAFNCCAQQQPPITSTNFTIDGIKPWGGSLPPNIEGTVYMYAGYYYPMKVVYSNAVSWGTLPISVTLPDGTTVSDDFEGYVYSFDDDLSQSNCTVPDPSNY
In the case of B1, the “glycan array binding signal (z-score)” value [1] is reported as -0.035, the “glycan array binding signal (z-score)” value [2] is reported as 2.69 and the “glycan array binding signal (z-score)” value [3] is reported as -0.31. For the same binder, the “glycan array binding signal (z-score)” value [4] was -0.364, the “glycan array binding signal (z-score)” value [5] was -0.327 and the “glycan array binding signal (z-score)” value [6] was 0.674. For the same binder, the “glycan array binding signal (z-score)” value [7] was -0.495, the “glycan array binding signal (z-score)” value [8] was -0.324 and the “glycan array binding signal (z-score)” value [9] was -0.013. For the same binder, the “glycan array binding signal (z-score)” value (Gal(b1-3)GlcNAc6S) was -0.223, the “glycan array binding signal (z-score)” value [10] was 0.064 and the “glycan array binding signal (z-score)” value [11] was 2.33. For the same binder, the “glycan array binding signal (z-score)” value [12] was 1.95, the “glycan array binding signal (z-score)” value [13] was 1.2 and the “glycan array binding signal (z-score)” value [14] was 0.691. The “glycan array binding signal (z-score)” value [15] was -0.689, the “glycan array binding signal (z-score)” value [16] was -0.075 and the “glycan array binding signal (z-score)” value [17] was 0.217. The “glycan array binding signal (z-score)” value [18] was -0.101, the “glycan array binding signal (z-score)” value [19] was 0.048 and the “glycan array binding signal (z-score)” value [20] was -0.217. The “glycan array binding signal (z-score)” value [21] was 0.543, the “glycan array binding signal (z-score)” value [22] was -0.579 and the “glycan array binding signal (z-score)” value (Gal(b1-4)Gal) was -0.193. For the same binder, the “glycan array binding signal (z-score)” value [23] was -0.352, the “glycan array binding signal (z-score)” value [24] was 0.699 and the “glycan array binding signal (z-score)” value (Gal(b1-4)Glc) was -0.357. For the same binder, the “glycan array binding signal (z-score)” value (Gal(b1-4)Glc6S) was 0.024, the “glycan array binding signal (z-score)” value (Gal(b1-4)GlcNAc) was 0.021 and the “glycan array binding signal (z-score)” value [25] was -0.078. For the same binder, the “glycan array binding signal (z-score)” value (Gal(b1-4)GlcNAc(b1-2)Man) was -0.394, the “glycan array binding signal (z-score)” value [26] was 0.007 and the “glycan array binding signal (z-score)” value [27] was -0.067. For the same binder, the “glycan array binding signal (z-score)” value [28] was 0.883, the “glycan array binding signal (z-score)” value [29] was -0.321 and the “glycan array binding signal (z-score)” value [30] was -0.249. The “glycan array binding signal (z-score)” value [31] was -0.753.
